Literature values as cited in patent publication US20110301238A1, “SEIZURE RELATED DISORDERS AND THERAPEUTIC METHODS THEREOF” (priority 2010, published 2011).
Where two headings read alike, the source gives them in different places. At least one compound was matched to its structure with a doubt left.

Legend:
[1] = test system: mouse seizure models; parameters: key: +: Efficacy in mouse seizure models is indicated as plus; −: minus; some (+/−); details: literature; the PTZ model was performed in rats for PHB, PHT and VPA; cited from earlier work
[2] = test system: mouse seizure models; parameters: key: +: Efficacy in mouse seizure models is indicated as plus; −: minus; some (+/−); details: literature; cited from earlier work
[3] = test system: Wistar rats; parameters: key to Efficacy in PTZ in PILO-SE rodents (chronic): +: Efficacy in mouse seizure models is indicated as plus; −: minus; some (+/−); details: cited from earlier work; for sensitivity of PTZ-induced seizures to drug: one month after pilocarpine, subcutaneous PTZ
[4] = test system: mouse seizure models; parameters: key: +: Efficacy in mouse seizure models is indicated as plus; −: minus; some (+/−); details: literature; cited from earlier work; remark: listed apart in the source

CCC1(c2ccccc2)C(=O)NC(=O)NC1=O [PHB, phenobarbital]
Efficacy in PTZ (acute) [1]: +
Efficacy in 6 Hz (acute) [2]: +
sensitivity of PTZ-induced seizures to drug ([3]; SE Wistar rats): not in SE rats
Efficacy in PTZ in PILO-SE rodents (chronic) ([3]; literature, PTZ model performed in rats for PHB, PHT and VPA): −
sensitivity of PTZ-induced seizures to drug ([3]; no SE Wistar rats): sensitive
Efficacy in MEST (acute) [4]: +
